Results taken from PubChem BioAssay AID651640 (Broad Institute, 2012).
Several values for one entry are separate records, joined by “and”; a condition that tells them apart may be missing. Equal entries are not always repeated. The whole screen tested about 350,000 compounds, of which about 6,000 (1.7%) were called active. The inconclusive results got no clear call from the source; some entries with a clear call stand among them for comparison. Cut-off read from the data, not from the text of the source: active = CPE inhibition above about 20% (passing the limit was not always enough); inconclusive = no clear call, values can overlap the other calls; tested in BHK-21 cells.

Assay: protection of cells from dengue 2 killing – plate reader, single concentration, primary screen (AID 651640);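 note: 0% = median of neutral control wells and 100% = median of positive control wells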
Details: DENV2-infected cells, cytopathic effect rescue, at 9.99 µM, active compounds read high

Row | Compound | CPE inhibition
1 | Nc1nc(N)c2cc(Sc3ccc(Cl)cc3)ccc2n1 | inactive: -4.02%
2 | O=C(Cc1cccc(C(F)(F)F)c1)Nc1ccc(S(=O)(=O)N2CCCC2)cc1 | active: 79%
3 | C[C@H](CO)N1C[C@H](C)[C@@H](CN(C)CC2CC2)OCc2ccccc2-c2ccccc2C1=O | inconclusive: 20.8%
4 | O=C(Nc1cccc(Oc2ccccc2)c1)C1Cc2c(-c3ccc4c(c3)OCO4)ccnc2O1 (configuration not stated) | inconclusive: 30.9%
5 | CCn1c(-c2ccccc2)csc1=Nc1ccc(O)cc1 | inactive: 6.69%
6 | CNC(=S)N1CCN(CCNC2=CC(=O)CC(C)(C)C2)CC1 | inconclusive: 50%
7 | CN1C(=O)c2cc(NC(=O)c3cccs3)ccc2OC[C@H]2O[C@@H](CC(=O)Nc3ccc4c(c3)COC4)CC[C@@H]21 | inactive: -0.307%
8 | O=[N+]([O-])c1ccc(NC(=S)N2CCN(S(=O)(=O)c3ccccc3)CC2)cc1 | inconclusive: 59.4%
9 | COc1ccc(NC(=O)N(C)C[C@H]2Oc3c(NS(=O)(=O)c4ccc(C)cc4)cccc3C(=O)N([C@H](C)CO)C[C@H]2C)cc1 | inactive: -3.4%
10 | Cc1ccc(NC(=O)C(=O)c2cn(CC(=O)N3CCCCC3)c3ccccc23)cc1 | inconclusive: 37.4%
11 | CCCC[C@@H]1CNC(=S)N1CCCc1cc(OC)c(OC)c(OC)c1 | inconclusive: 25.1%
12 | Brc1ccc2c(c1)CN1CCCC1=N2 | inconclusive: 26.8%
13 | Cc1nn(C)cc1NC(=O)c1cc2nc(-c3ccco3)cc(C(F)(F)F)n2n1 | inconclusive: 27.6%
14 | COc1ccc2c3c(n(C)c2c1)[C@H](CO)N(C(C)=O)CC31CN(C(=O)C2CC2)C1 | active: 65.7%
15 | COCCn1c(C(=O)N2CCCC2)cc2c1C[C@H]1CN(C(=O)c3ccccc3)[C@@](Cc3ccc(F)cc3)(C(=O)OC)[C@@H]21 | active: 63.9%
16 | CCCCNC(=O)C1(C)CCCCN1C(=O)c1sccc1C (configuration not stated) | inconclusive: 48.4%
17 | C[C@H]1CN([C@@H](C)CO)C(=O)c2cccc(NS(=O)(=O)c3ccc(Cl)cc3)c2O[C@H]1CN(C)Cc1ccc(Cl)c(Cl)c1 | inactive: -2.24%
18 | CO[C@@H](CN(C)C(=O)c1cnccn1)[C@@H](C)CN([C@H](C)CO)S(=O)(=O)c1ccccc1 | inconclusive: 44%
19 | O=C(CN1CCN(S(=O)(=O)c2ccc(F)c(Cl)c2)CC1)N1CCOCC1 | inconclusive: 60.7%
20 | CCCCNC(=O)C1C(c2ccc(C(F)(F)F)cc2)=Nc2ccccc2N1C(=O)c1cccc(C(F)(F)F)c1 (configuration not stated) | inactive: -17.2%
21 | CC(C)C[C@H]1CNC(=S)N1CC1CCN(CC2CCCC2)CC1 | inconclusive: 72.7%
22 | Cc1cnc(C(=O)OC(C(=O)c2ccccc2)c2ccccc2)cn1 (configuration not stated) | inconclusive: 45.6%
23 | O=c1[nH]c2ccc(NS(=O)(=O)c3ccc(F)c(Cl)c3)cc2[nH]1 | inconclusive: 20.1%
24 | O=C(Cc1ccccn1)NCC[C@@H]1CC[C@@H](NS(=O)(=O)c2ccc(Cl)cc2)[C@@H](CO)O1 | active: 33.7%

Row | Compound | CPE inhibition
25 | Cc1ccc(-c2cnc3c(c2)C(=O)N([C@H](C)CO)C[C@H](C)[C@H](CN(C)S(C)(=O)=O)O3)cc1 | inconclusive: 28.5%
26 | COc1ccccc1Cc1c(-c2ccc(F)cc2)nc2ccc(Cl)cn12 | inactive: -3.47%
27 | Cc1ccc(-c2cnc3c(c2)C(=O)N([C@H](C)CO)C[C@@H](C)[C@H](CN(C)C(=O)Cc2ccccc2)O3)cc1 | inconclusive: 55.2%
28 | Cc1noc(C)c1NC(=O)N(C)C[C@H]1Oc2c(NS(=O)(=O)c3ccccc3)cccc2C(=O)N([C@@H](C)CO)C[C@H]1C | active: 27.8%
29 | CCNC(=O)C[C@H]1CC[C@H]2[C@@H](COc3ccc(NC(=O)Nc4ccccc4Cl)cc3C(=O)N2C)O1 | inconclusive: 20.2%
30 | CCOC(=O)C1CCCN(C(=O)c2ccc(CS(=O)(=O)c3ccc(Br)cc3)o2)C1 (configuration not stated) | inconclusive: 25.2%
31 | CCc1nc(N)nc(N)c1-c1ccc(Cl)c(N=[N+]=[N-])c1 | inactive: 9.63% and inactive: -8.8%
32 | O=C(c1ccccc1)N1CC(=O)N2[C@H](CO)[C@@H](c3ccc(C#Cc4ccccc4)cc3)[C@@H]2C1 | active: 20.8%
33 | O=C(O)c1cccc(S(=O)(=O)N(Cc2ccccc2)c2ccccc2)c1 | inconclusive: 25.6%
34 | COC(=O)C[C@H]1CC[C@H]2[C@H](COc3ccc(NC(=O)c4ccccc4)cc3C(=O)N2C)O1 | inconclusive: 41%
35 | COc1ccc(NC(=O)N(C)C[C@H]2OCCCC[C@@H](C)Oc3ccc(NC(=O)Nc4ccc5c(c4)OCO5)cc3C(=O)N([C@@H](C)CO)C[C@H]2C)cc1 | active: 69.7%
36 | Clc1ccc(OCCCN2CCCCC2)c(Br)c1 | inconclusive: 24.3%
37 | CCCCNC(=O)c1onc(CSc2cccc3ccccc23)c1C(=O)O | inconclusive: 62.3%
38 | C[C@@H]1CN([C@@H](C)CO)C(=O)c2cc(-c3ccncc3)cnc2O[C@H]1CN(C)C(=O)C1CCCCC1 | inconclusive: 21.4%
39 | Cc1ccccc1S(=O)(=O)NCC[C@@H]1CC[C@@H](NC(=O)Nc2cccc(Cl)c2)[C@@H](CO)O1 | inconclusive: 21%
40 | Cc1ccc(NC(=O)CNC(=O)c2ccc(C)s2)nc1 | inconclusive: 32.7%
41 | CC(=O)Nc1ccc(S(=O)(=O)NCc2nnnn2-c2ccc(Cl)cc2)cc1 | inconclusive: 38.5%
42 | CN1CC(=O)N2[C@H](c3ccc4c(c3)OCO4)c3[nH]c4ccccc4c3C[C@@H]2C1=O | inconclusive: 28.3%
43 | Cc1cc(C(=O)OCC(=O)Nc2ccccc2C#N)c(C)o1 | inconclusive: 34.7%
44 | COCC(=O)Nc1ccc2c(c1)C(=O)N(C)[C@H]1CC[C@H](CC(=O)Nc3ccccc3OC)O[C@@H]1CO2 | inconclusive: 21.1%
45 | CCC(C)[C@H]1CNC(=O)C(=O)N1CC(C)(C)C (some centres not stated) | inconclusive: 41.1%
46 | CCCc1nc2nc(C)c(NS(=O)(=O)c3ccc(C)c(C)c3)c(=O)n2[nH]1 | inconclusive: 57%
47 | COc1cccc(/C=N/NC(=O)C(=O)N/N=C/c2cccc(OC)c2OC)c1OC | active: 85%
48 | Cc1ccc(S(=O)(=O)NCc2ccccc2)cc1C(=O)NCC1CCCO1 (configuration not stated) | inactive: 3.28%

Row | Compound | CPE inhibition
49 | COCC(=O)Nc1ccc2c(c1)OC[C@H](C)N(CCC(F)(F)F)C[C@@H](C)[C@H](OC)CN(C)C2=O | inactive: -1.51%
50 | C[C@H]1CCCCO[C@H](CN(C)C(=O)NC2CCCCC2)[C@@H](C)CN([C@@H](C)CO)C(=O)c2cc(NC(=O)Nc3ccccc3)ccc2O1 | active: 26.9%
51 | COc1ccccc1S(=O)(=O)N(C)C[C@@H]1Oc2cc(C#CCC(C)C)ccc2S(=O)(=O)N([C@H](C)CO)C[C@@H]1C | inconclusive: 58.4%
52 | COCCCN1C(=O)C(CC(=O)NCCN2CCOCC2)CC(C(=O)N(C(C)C)C(C)C)=C1C (configuration not stated) | inconclusive: 67.8%
53 | C/C=C/c1ccc([C@@H]2[C@@H](CO)N(C(=O)NCCC)[C@H]2CNC(=O)C2CCC2)cc1 | inconclusive: 68.7%
54 | C[C@H](CO)N1C[C@H](C)[C@H](CN(C)C)Oc2cc(C#CC3(O)CCCC3)ccc2S1(=O)=O | active: 26.3%
55 | C[C@H](CO)N1C[C@H](C)[C@@H](CN(C)Cc2ccc(C(=O)O)cc2)OCCCC[C@H](C)Oc2ccc(NS(=O)(=O)c3ccc(F)cc3)cc2C1=O | inconclusive: 21.4%
56 | O=C(Cc1cccnc1)N[C@H]1CC[C@@H](CCn2cc(Cc3ccccc3)nn2)O[C@H]1CO | active: 88.5%
57 | CC(=O)Nc1ccc(NC(=O)CSCc2ccccc2Cl)cc1 | inactive: -5.64%
58 | C[C@@H]1CN([C@@H](C)CO)C(=O)c2cc(NC(=O)Nc3cccc4ccccc34)ccc2O[C@@H](C)CCCCO[C@H]1CN(C)CC1CCCCC1 | active: 28.2%
59 | COc1ccc2c3c(n(C)c2c1)[C@H](CO)N(S(C)(=O)=O)CC31CCN(Cc2nccs2)CC1 | active: 24.2%
60 | O=C(Cc1cccnc1)N1[C@@H](CO)[C@@H]2c3ccccc3NC[C@@H]21 | active: 23.5%
61 | COc1cccc(S(=O)(=O)NCC(=O)Nc2ccc(C(C)(C)C)cc2)c1 | inconclusive: 40%
62 | COc1ncc(C2=CC(=O)CC(C)(C)C2)cn1 | active: 30.8%
63 | C[C@H](CO)N1C[C@H](C)[C@@H](CN(C)S(=O)(=O)c2ccc(F)cc2)Oc2ncc(Br)cc2C1=O | inconclusive: 20.2%
64 | C[C@H](CO)N1C[C@H](C)[C@@H](CN(C)S(C)(=O)=O)Oc2ccc(NC(=O)Cc3ccccc3)cc2CC1=O | active: 23.1%
65 | COCC(=O)Nc1ccc2c(c1)OC[C@@H](C)N(Cc1cc(F)ccc1F)C[C@H](C)[C@@H](OC)CN(C)C2=O | inactive: -3.26%
66 | O=C(N[C@@H]1C=C[C@@H](CC(=O)N2CCCCC2)O[C@H]1CO)c1ccc2c(c1)OCO2 | inactive: 1.01%
67 | C[C@H](CO)N1C[C@H](C)[C@@H](CN(C)CC2CC2)Oc2c(NC(=O)Nc3ccc(C(F)(F)F)cc3)cccc2C1=O | inactive: -2.38%
68 | c1ccc(-n2cc(CN3CCCC3)c(-c3ccc4c(c3)OCO4)n2)cc1 | inconclusive: 21.8%
69 | C[C@@H]1CN([C@H](C)CO)C(=O)c2cc(NC(=O)Cc3ccccc3)ccc2O[C@@H](C)CCCCO[C@H]1CN(C)C(=O)C1CCCCC1 | inconclusive: 34%
70 | Cc1nnnn1/C(=C\c1ccccc1)C(=O)OCC(=O)NC1CCCCC1 | inconclusive: 82.2%
71 | CCCNC(=O)c1cc2ccccc2c(=O)o1 | inconclusive: 61.8%
72 | CN1CCN(c2ncnc3c2ncn3[C@H]2CN(C)C[C@@H](CO)O2)CC1 | inconclusive: 61.6%

Of the compounds above, three have an NH in an aromatic ring:
Row | Compound | CPE inhibition
23 | O=c1[nH]c2ccc(NS(=O)(=O)c3ccc(F)c(Cl)c3)cc2[nH]1 | inconclusive: 20.1%
42 | CN1CC(=O)N2[C@H](c3ccc4c(c3)OCO4)c3[nH]c4ccccc4c3C[C@@H]2C1=O | inconclusive: 28.3%
46 | CCCc1nc2nc(C)c(NS(=O)(=O)c3ccc(C)c(C)c3)c(=O)n2[nH]1 | inconclusive: 57%
